Test system: hPSCs
Assay: Reduced representation bisulphite sequencing (RRBS), genome-wide CpG methylation
Format: cell-based, human

Substance: LN111: mouse LN111, 3-D Culture Matrix Laminin I (CULTREX, TREVIGEN), coating of culture dishes
- Genome-wide CpG methylation level (HES-1 cultured on LN111): 57
- Genome-wide CpG methylation level (HES-2 cultured on LN111): 61

Source: patent US12467038B2, “Methods of culturing human pluripotent cells” (Hadasit Medical Research Services and Development Ltd., priority 2019, dated 2025)
